This note sets out measurements from PubChem BioAssay AID248 (DTP/NCI, 2004).

The test system of this test is L1210 leukemia ip in BDF1 mice, survival T/C. In words: NCI In Vivo Anticancer Drug Screen. Data for tumor model L1210 Leukemia (intraperitoneal) in B6D2F1 (BDF1) mice. The note with it: T/C endpoint: mean survival time, higher T/C = longer survival.
Setting [1] is: dose: 400.0 mg/kg/injection, schedule: Q01DX001 (ip), vehicle: saline.
[2] abbreviates: dose: 400.0 mg/kg/injection, schedule: Q01DX001 (ip), vehicle: carboxymethylcellulose (CMC).
Where [3] appears, read: dose: 200.0 mg/kg/injection, schedule: Q01DX001 (ip), vehicle: saline.
Setting [4] is: dose: 200.0 mg/kg/injection, schedule: Q04DX003 (ip), vehicle: saline.
Where [5] appears, read: dose: 400.0 mg/kg/injection, schedule: Q04DX003 (ip), vehicle: saline.
[6] abbreviates: dose: 400.0 mg/kg/injection, schedule: Q04DX003 (ip), vehicle: saline with Tween-80.
[7] abbreviates: dose: 400.0 mg/kg/injection, schedule: Q01DX001 (ip), vehicle: Klucel (hydroxypropylcellulose) (HPC).
Where [8] appears, read: dose: 100.0 mg/kg/injection, schedule: Q01DX005 (ip), vehicle: saline.
Where [9] appears, read: dose: 400.0 mg/kg/injection, schedule: Q01DX001 (ip), vehicle: saline with Tween-80.
[10] abbreviates: dose: 400.0 mg/kg/injection, schedule: Q04DX003 (ip), vehicle: Klucel (hydroxypropylcellulose) (HPC).

Structures are written as SMILES. The list does not hold the whole screen: it is rich in T/C values a quarter to a half above the control, in often repeated tests (any T/C) and in doses without a T/C. Further doses and runs are listed elsewhere. T/C gives the treated animals as a percentage of the vehicle group. Some entries give survivors of the animals treated and no T/C: the source holds a T/C of zero for them, seemingly a mark for toxic or unscored doses. Some survivor counts are full or nearly so, which does not show that the dose was tolerated: the source hardly ever lists a survival T/C far under the control, and the zero likely stands for such cases as well. Survivors were counted at the toxicity check, usually on the fifth day, unless a day is given; later deaths do not show. Schedule codes are those of the source, read here as Q, the interval in days (D) or hours (H), X, the number of doses. For survival time, the PubChem record calls one and a half times the control and up active, and a quarter to a half above the control has no call in these data; cut-offs in other NCI protocols can differ. Some schedule codes hold Z or #, which are not explained here. Some T/C values carry the count of animals alive at the toxicity check (mostly the fifth day); where none is given, no animal had died by that day.

Regarding `O=C(O)C(c1ccccc1)(c1ccccc1)c1ccccc1`, under setting [1], the survivor count was 1 of 4.
`O=C(O)c1cc(N=C2C=CC(=C(c3ccccc3)c3ccc(Nc4ccc(Cl)c(C(=O)O)c4)cc3)C=C2)ccc1Cl`: for the setting “dose: 400.0 mg/kg/injection, schedule: Q01DX009 (ip), vehicle: Klucel (hydroxypropylcellulose) (HPC)”, the survivor count is 0 of 6.
`COC(=O)CC(Br)CBr` (centres undefined): under setting [2], the survivor count is on record as 2 of 4.
Consider `NC1CC2(CCC1=O)c1ccccc1-c1ccccc12` (centres undefined), for which the survivor count under setting [3] is 3 of 4.
For the compound `Cc1cc(C)c2c(C#N)cn(-c3ccc([N+](=O)[O-])cc3)c2n1`, the survivor count (dose: 100.0 mg/kg/injection, schedule: Q01DX001 (ip), vehicle: saline) is on record as 3 of 3.
Regarding `FC(F)(F)S.[Hg]`, the survivor count is on record as 3 of 6 (dose: 20.0 mg/kg/injection, schedule: Q01DX009 (ip), vehicle: saline); 0 of 6 (dose: 100.0 mg/kg/injection, schedule: Q04DX003 (ip), vehicle: saline); 0 of 6 under setting [4]; 0 of 6 under setting [5].
Turning to `c1ccc2c(c1)OCC(CNC1CCCCC1)O2` (centres undefined), the survivor count (dose: 50.0 mg/kg/injection, schedule: Q04DX003 (ip), vehicle: saline with Tween-80) was 6 of 6; the survivor count (dose: 200.0 mg/kg/injection, schedule: Q04DX003 (ip), vehicle: saline with Tween-80) is 5 of 6; the survivor count under setting [6] is listed as 1 of 6.
Take `C[N+]1(C)C2CC(=O)CC1C1CC12` (centres undefined) (tested in a mixture with another compound): the survivor count under setting [5] was 3 of 6.
Turning to `Nc1ccc2c(c1)Cc1c(F)ccc(F)c1-2`, the survivor count under setting [2] is on record as 1 of 4.
For `C=C(Cl)COC(=O)C(C)O` (centres undefined), the survivor count is, setting by setting: (dose: 200.0 mg/kg/injection, schedule: Q01DX001 (ip), vehicle: Klucel (hydroxypropylcellulose) (HPC)) 0 of 6; under setting [7], 0 of 6.
As for `CN(N(P(c1ccccc1)c1ccccc1)P(c1ccccc1)c1ccccc1)P(c1ccccc1)c1ccccc1`, for the setting “dose: 200.0 mg/kg/injection, schedule: Q01DX001 (ip), vehicle: steroid suspending solution”, the survivor count is listed as 4 of 4.
For `CC(=O)O[C@@]1(C)C(=O)OCC2=CCN3CC[C@@H](OC(=O)[C@H](C)[C@]1(C)OC(C)=O)[C@@H]23`, the survivor count under setting [3] is 0 of 4 and the survivor count under setting [1] is on record as 0 of 4.
On to `Cc1ccc(C(=O)C2CC2)cc1C`, for which the survivor count under setting [6] is on record as 2 of 6.
As to `C(CC1CO1)CC1OC1CC1CO1` (centres undefined), the T/C (dose: 39.0 mg/kg/injection, schedule: Q01DX009 (ip), vehicle: saline with Tween-80) was 125 % of control; the T/C (dose: 59.0 mg/kg/injection, schedule: Q01DX009 (ip), vehicle: saline with Tween-80) is 138 % of control; the T/C (dose: 89.0 mg/kg/injection, schedule: Q01DX009 (ip), vehicle: saline with Tween-80) was 149 % of control; the T/C (dose: 90.0 mg/kg/injection, schedule: Q01DX009 (ip), vehicle: Klucel (hydroxypropylcellulose) (HPC)) was 135 % of control; the T/C (dose: 106.0 mg/kg/injection, schedule: Q04DX003 (ip), vehicle: saline) is 125 % of control; the T/C (dose: 160.0 mg/kg/injection, schedule: Q04DX003 (ip), vehicle: saline) is 128 % of control. For the setting “dose: 240.0 mg/kg/injection, schedule: Q04DX003 (ip), vehicle: saline”, the T/C was 139 % of control [5 of 6 alive]. Besides, the survivor count is 3 of 6 (dose: 150.0 mg/kg/injection, schedule: Q01DX009 (ip), vehicle: other); 5 of 6 (dose: 320.0 mg/kg/injection, schedule: Q04DX003 (ip), vehicle: saline); 0 of 6 (dose: 640.0 mg/kg/injection, schedule: Q04DX003 (ip), vehicle: saline).
Consider `CS(=O)(=O)OCC(=O)O`, for which the survivor count under setting [7] is listed as 0 of 6.
`Nc1ncnc2c1c(C1=NCCN1)cn2C1OC(CO)C(O)C1O` (centres undefined): the T/C was 144 % of control (dose: 25.0 mg/kg/injection, schedule: Q01DX009 (ip), vehicle: saline); 125 % of control under setting [8]; 146 % of control (dose: 100.0 mg/kg/injection, schedule: Q01DX009 (ip), vehicle: saline). For the same compound, the survivor count reads like this: under setting [8], 6 of 6; (dose: 200.0 mg/kg/injection, schedule: Q01DX005 (ip), vehicle: saline) 3 of 6.
Regarding `CCS[S+](CC)CC`, the survivor count reads like this: (dose: 25.0 mg/kg/injection, schedule: Q01DX009 (ip), vehicle: saline with Tween-80) 1 of 3; (dose: 50.0 mg/kg/injection, schedule: Q01DX009 (ip), vehicle: other) 0 of 3; (dose: 100.0 mg/kg/injection, schedule: Q01DX009 (ip), vehicle: other) 0 of 3; (dose: 200.0 mg/kg/injection, schedule: Q01DX009 (ip), vehicle: other) 0 of 3.
As for `Nc1ncnc(N)c1NC(=O)/C=C/c1ccccc1`, the survivor count under setting [9] was 3 of 6.
In the case of `CC(C)(O)/C=C/C(=O)[C@](C)(O)[C@H]1[C@H](O)C[C@@]2(C)[C@@H]3CC=C4[C@@H](C[C@H](O)C(=O)C4(C)C)[C@]3(C)C(=O)C[C@]12C`, the survivor count is 0 of 4 (dose: 2.0 mg/kg/injection, schedule: Q01DX001 (sc), vehicle: steroid suspending solution); 0 of 4 (dose: 4.0 mg/kg/injection, schedule: Q01DX001 (sc), vehicle: steroid suspending solution); 0 of 4 (dose: 8.0 mg/kg/injection, schedule: Q01DX001 (sc), vehicle: steroid suspending solution).
Turning to `Cc1ccc(C(N)=O)cn1`, the T/C (dose: 100.0 mg/kg/injection, schedule: Q04DX003 (ip), vehicle: saline with Tween-80) was 126 % of control.
As for `O=C(Nc1ccccc1)C(Cl)S(=O)(=O)O` (centres undefined), the survivor count under setting [9] is given as 0 of 3.
Regarding `Cn1ccnc1Oc1ccc(Cl)cc1`, the T/C (dose: 25.0 mg/kg/injection, schedule: Q04DX002 (ip), vehicle: Klucel (hydroxypropylcellulose) (HPC)) was 129 % of control.
With `CCC(C)(CC)NC(C)=O`, under setting [10], the survivor count is recorded as 1 of 6.
Turning to `C[n+]1ccc(/C(N)=N/O)cc1`, the survivor count under setting [5] was 3 of 6.
Turning to `COC(=O)/C=C(\C)Nc1cccc([N+](=O)[O-])c1`, the survivor count (dose: 200.0 mg/kg/injection, schedule: Q01DX001 (ip), vehicle: other) is on record as 2 of 6 and the survivor count (dose: 400.0 mg/kg/injection, schedule: Q01DX001 (ip), vehicle: other) is recorded as 0 of 6.
Consider `[N-]=[N+]=NC1=C(Cl)C(=O)c2ccccc2C1=O`, for which the survivor count (dose: 100.0 mg/kg/injection, schedule: Q04DX002 (ip), vehicle: saline with Tween-80) was 0 of 3; the survivor count (dose: 200.0 mg/kg/injection, schedule: Q04DX002 (ip), vehicle: saline with Tween-80) is recorded as 0 of 3; the survivor count (dose: 400.0 mg/kg/injection, schedule: Q04DX002 (ip), vehicle: saline with Tween-80) is on record as 0 of 3.
For `O=C(C[n+]1ccc2c([N+](=O)[O-])cccc2c1)c1ccccc1`, the survivor count (dose: 200.0 mg/kg/injection, schedule: Q04DX003 (ip), vehicle: Klucel (hydroxypropylcellulose) (HPC)) was 1 of 6 and the survivor count under setting [10] was 1 of 6.
Consider `NNC(=O)NC(=O)NN`, for which the survivor count under setting [1] is 2 of 6.
Turning to `CCCCSP(=S)(Cc1ccccc1)SCCCC`, the survivor count under setting [10] is reported as 0 of 6.
As for `O=C(COc1cc(Cl)c(Cl)cc1Cl)OC(=O)COc1cc(Cl)c(Cl)cc1Cl`, for the setting “dose: 400.0 mg/kg/injection, schedule: Q04DX002 (ip), vehicle: Klucel (hydroxypropylcellulose) (HPC)”, the survivor count was 3 of 3.
Take `N=C(N)c1ccc(NC(=O)c2ccc(C(=O)Nc3ccc(C(=N)N)cc3)c(N)c2)cc1`: under “dose: 250.0 mg/kg/injection, schedule: Q01DX Z (ip), vehicle: carboxymethylcellulose (CMC)”, the T/C was 128 % of control.
For the compound `CN1CCC2=C(C1)C(c1ccccc1)c1ccccc12` (centres undefined), under setting [4], the survivor count is 1 of 6.
Take `COC(=O)N1C2CCC(C2=C(C)C)N1C(=O)OC`: under setting [10], the survivor count is on record as 6 of 6.
As to `O=C(Nc1ccc(F)c(Cl)c1)OCC1CCCO1` (centres undefined), the survivor count is reported as 3 of 3 (dose: 25.0 mg/kg/injection, schedule: Q01DX009 (ip), vehicle: Klucel (hydroxypropylcellulose) (HPC)) and 6 of 6 under setting [10].
